# From article PMC12585102
# Sequences of proteins named here, by UniProt entry; tags and fusion partners are left off.
# UniProt Q9P2E3: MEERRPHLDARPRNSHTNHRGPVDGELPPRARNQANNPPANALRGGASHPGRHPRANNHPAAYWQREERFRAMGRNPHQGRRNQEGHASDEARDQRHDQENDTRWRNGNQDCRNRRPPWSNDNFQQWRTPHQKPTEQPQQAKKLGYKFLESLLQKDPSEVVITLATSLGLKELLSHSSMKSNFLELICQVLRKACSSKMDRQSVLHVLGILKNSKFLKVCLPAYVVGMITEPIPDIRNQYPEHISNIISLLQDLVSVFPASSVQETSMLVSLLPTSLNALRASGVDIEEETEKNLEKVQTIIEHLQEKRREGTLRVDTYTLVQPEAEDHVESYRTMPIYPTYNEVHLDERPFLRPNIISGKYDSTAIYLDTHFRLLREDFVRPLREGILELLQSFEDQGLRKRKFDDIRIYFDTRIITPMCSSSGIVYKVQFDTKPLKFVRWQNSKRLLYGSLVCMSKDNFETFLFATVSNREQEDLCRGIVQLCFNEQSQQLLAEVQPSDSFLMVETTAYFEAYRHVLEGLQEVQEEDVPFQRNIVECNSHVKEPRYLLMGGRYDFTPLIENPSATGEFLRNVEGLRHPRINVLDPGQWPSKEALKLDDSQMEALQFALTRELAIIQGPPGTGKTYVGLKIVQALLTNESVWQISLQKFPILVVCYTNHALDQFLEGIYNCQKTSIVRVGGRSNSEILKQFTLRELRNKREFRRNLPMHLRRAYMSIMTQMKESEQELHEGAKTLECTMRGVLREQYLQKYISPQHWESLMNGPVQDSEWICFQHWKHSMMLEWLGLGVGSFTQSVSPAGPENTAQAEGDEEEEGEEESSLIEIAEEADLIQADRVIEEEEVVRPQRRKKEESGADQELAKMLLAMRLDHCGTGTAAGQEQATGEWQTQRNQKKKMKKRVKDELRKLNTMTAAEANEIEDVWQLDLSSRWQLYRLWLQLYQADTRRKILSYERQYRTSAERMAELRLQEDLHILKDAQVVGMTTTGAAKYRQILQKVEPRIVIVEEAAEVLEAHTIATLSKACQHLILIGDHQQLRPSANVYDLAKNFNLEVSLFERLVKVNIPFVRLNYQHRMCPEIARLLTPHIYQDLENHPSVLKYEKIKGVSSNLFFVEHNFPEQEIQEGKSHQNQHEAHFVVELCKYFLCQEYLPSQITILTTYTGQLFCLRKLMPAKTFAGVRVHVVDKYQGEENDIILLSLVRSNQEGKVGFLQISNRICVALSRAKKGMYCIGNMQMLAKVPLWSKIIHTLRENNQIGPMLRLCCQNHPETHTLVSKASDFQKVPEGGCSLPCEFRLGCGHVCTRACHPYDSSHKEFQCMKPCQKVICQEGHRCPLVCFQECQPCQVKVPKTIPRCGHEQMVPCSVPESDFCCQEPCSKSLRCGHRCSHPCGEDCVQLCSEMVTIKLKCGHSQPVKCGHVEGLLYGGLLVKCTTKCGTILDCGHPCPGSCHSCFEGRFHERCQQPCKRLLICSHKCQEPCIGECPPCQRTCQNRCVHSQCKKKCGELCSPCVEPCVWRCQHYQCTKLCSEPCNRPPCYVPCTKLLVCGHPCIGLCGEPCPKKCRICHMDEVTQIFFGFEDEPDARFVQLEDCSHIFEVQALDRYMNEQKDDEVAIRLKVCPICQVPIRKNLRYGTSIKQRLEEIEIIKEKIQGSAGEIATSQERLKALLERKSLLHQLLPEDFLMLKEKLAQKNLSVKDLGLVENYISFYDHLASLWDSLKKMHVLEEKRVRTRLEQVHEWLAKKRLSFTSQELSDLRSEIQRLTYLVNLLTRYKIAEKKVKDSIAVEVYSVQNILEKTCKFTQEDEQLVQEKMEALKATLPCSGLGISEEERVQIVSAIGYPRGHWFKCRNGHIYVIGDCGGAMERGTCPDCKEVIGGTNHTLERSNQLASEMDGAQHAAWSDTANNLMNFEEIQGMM
# No constants are given. Whether binding was seen depends on the method and setting. In cells and extracts the contact can be indirect. Some results given as binding are weak or reduced against the parent protein; the word gives no strength. Sequences can lack the tags named with a protein.
# Molecular target: HsZNFX1-flag (human ZNFX1, flag-tagged) (human) (UniProt Q9P2E3)
# Assay: co-IP; HEK-293T cells transfected with EcMAVS-GFP (or GFP-tagged empty vector) together with HsZNFX1-flag; precipitating antibody not stated
binder,measurement,value
"EcMAVS-GFP (mitochondrial antiviral signalling protein of Epinephelus coioides, GFP-tagged) (protein, UniProt A0A2D1AFT4 1-563) MSFVNDRLYNEFVRRKMSIFVHKVDVGEIIYHLPCLTAHDREHIEAKRQNRGNREGVMELLDCLKRRENWPEQFIEALDACEQWTLAAEMREKYNALRGIKRAAVAPPAEASAPPEPAAQASPPVQPQAPQSSAAQVPEAVSPPEPVPEPPQSTQAEVAPPPSTPPPSPAAPHTQPATPPPPQRETNSHQEPVENSESDIQDVSADDVVIPDQVSAGNREVSISSVDAPQPSRPVEQCETHTASPDPLQTTTTSTEVSPPQSPSASQMNSDVTNGSSFLTLTPERPPVQDTSPPGDFKAVLQPEETSEPPAAQVVESSPQTEAAATTSPPLGAAGMGAPLCGDSSVCLSKPGPLISVHPLNHSSPTIPAQSLPVPPYSGNTERLEISSSVSDAVTTAQSSTCSYVSSTTVTTASAPPCQETGIALNHNEPEENHYESPRNSLGMQSVQEHVGHVSEEPSILNLDGQNLTPQVPAVDSEAAKEMTFAPPLSNTAADTVRSVNTSCSENHHPCEPTPTDLSAEQKTLQGSEDKMACRTLTPNTKYILIAAGVGVCALLIAWRFKH",binding,binds
